Data taken from the supplement of paper PMC10849652.
The list shows a part of the results.

Protein sequences, listed by entry. Tags and fused reporters are not part of them. Lines headed by an entry give the natural chain unless they say otherwise; changes in a name come on top.
UniProt Q9UNW1: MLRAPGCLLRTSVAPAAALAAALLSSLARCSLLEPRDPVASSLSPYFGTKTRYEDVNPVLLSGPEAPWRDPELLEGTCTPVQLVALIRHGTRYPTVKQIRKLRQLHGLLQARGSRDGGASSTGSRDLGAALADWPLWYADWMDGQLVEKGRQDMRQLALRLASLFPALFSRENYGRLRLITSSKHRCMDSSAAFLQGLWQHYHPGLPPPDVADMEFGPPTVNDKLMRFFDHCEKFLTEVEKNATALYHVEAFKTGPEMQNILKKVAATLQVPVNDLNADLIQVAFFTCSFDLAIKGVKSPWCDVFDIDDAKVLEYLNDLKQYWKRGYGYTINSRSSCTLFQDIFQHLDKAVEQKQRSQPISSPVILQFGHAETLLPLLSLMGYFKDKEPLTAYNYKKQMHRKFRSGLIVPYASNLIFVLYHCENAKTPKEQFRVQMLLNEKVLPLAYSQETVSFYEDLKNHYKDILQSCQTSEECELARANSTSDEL
UniProt Q9Y5U8: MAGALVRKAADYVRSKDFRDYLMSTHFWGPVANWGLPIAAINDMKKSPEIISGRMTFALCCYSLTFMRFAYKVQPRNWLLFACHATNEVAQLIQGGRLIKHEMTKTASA
UniProt Q6NTE8: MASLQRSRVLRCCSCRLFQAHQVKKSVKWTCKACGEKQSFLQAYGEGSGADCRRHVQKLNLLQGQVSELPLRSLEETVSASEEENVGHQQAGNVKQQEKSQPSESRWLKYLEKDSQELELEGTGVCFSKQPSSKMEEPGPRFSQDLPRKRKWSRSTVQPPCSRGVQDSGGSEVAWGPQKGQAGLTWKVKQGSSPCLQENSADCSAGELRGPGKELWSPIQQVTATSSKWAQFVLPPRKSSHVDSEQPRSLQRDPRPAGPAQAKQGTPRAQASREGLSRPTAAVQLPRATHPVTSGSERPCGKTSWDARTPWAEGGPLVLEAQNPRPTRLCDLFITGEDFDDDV
UniProt O75352: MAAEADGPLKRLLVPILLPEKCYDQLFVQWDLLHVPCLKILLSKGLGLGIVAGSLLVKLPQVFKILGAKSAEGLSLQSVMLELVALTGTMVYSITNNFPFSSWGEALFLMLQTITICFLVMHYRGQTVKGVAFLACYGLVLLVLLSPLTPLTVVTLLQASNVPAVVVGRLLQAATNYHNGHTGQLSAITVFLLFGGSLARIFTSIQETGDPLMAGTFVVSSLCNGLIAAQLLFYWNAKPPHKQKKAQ
UniProt Q13724: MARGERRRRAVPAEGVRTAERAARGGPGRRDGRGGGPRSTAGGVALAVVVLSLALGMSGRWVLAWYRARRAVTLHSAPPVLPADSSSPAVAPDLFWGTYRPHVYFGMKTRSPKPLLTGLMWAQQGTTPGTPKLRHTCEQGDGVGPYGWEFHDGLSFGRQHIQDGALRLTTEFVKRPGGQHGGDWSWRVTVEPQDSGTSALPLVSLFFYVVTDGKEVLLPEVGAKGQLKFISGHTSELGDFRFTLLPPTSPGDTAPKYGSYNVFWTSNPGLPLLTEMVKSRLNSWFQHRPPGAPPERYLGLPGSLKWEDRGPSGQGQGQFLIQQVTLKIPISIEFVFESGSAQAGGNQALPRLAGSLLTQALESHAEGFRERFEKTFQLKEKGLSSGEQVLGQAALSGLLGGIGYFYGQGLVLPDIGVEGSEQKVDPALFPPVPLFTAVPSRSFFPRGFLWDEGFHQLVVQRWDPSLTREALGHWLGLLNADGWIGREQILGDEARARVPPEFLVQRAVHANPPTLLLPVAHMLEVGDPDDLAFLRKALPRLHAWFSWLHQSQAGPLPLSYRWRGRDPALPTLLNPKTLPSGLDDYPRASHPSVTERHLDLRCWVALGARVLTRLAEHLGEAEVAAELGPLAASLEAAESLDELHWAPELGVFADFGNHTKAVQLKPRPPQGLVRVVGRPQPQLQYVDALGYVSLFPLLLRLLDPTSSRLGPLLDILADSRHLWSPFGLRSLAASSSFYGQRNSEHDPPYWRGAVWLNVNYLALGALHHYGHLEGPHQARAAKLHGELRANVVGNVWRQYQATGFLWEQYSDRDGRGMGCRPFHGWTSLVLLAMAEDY
UniProt Q8N5J2: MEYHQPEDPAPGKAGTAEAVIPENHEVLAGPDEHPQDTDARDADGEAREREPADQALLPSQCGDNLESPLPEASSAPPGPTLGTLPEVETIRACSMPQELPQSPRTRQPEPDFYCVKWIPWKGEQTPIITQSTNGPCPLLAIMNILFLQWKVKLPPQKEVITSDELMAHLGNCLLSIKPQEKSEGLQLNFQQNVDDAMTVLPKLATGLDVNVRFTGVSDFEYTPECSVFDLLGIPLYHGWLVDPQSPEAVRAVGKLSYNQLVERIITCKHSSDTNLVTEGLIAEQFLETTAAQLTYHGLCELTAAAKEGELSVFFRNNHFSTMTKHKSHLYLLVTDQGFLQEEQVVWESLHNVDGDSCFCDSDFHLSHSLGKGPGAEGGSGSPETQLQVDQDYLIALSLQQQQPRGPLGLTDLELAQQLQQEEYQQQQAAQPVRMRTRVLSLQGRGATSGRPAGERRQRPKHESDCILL
UniProt Q7Z3U7: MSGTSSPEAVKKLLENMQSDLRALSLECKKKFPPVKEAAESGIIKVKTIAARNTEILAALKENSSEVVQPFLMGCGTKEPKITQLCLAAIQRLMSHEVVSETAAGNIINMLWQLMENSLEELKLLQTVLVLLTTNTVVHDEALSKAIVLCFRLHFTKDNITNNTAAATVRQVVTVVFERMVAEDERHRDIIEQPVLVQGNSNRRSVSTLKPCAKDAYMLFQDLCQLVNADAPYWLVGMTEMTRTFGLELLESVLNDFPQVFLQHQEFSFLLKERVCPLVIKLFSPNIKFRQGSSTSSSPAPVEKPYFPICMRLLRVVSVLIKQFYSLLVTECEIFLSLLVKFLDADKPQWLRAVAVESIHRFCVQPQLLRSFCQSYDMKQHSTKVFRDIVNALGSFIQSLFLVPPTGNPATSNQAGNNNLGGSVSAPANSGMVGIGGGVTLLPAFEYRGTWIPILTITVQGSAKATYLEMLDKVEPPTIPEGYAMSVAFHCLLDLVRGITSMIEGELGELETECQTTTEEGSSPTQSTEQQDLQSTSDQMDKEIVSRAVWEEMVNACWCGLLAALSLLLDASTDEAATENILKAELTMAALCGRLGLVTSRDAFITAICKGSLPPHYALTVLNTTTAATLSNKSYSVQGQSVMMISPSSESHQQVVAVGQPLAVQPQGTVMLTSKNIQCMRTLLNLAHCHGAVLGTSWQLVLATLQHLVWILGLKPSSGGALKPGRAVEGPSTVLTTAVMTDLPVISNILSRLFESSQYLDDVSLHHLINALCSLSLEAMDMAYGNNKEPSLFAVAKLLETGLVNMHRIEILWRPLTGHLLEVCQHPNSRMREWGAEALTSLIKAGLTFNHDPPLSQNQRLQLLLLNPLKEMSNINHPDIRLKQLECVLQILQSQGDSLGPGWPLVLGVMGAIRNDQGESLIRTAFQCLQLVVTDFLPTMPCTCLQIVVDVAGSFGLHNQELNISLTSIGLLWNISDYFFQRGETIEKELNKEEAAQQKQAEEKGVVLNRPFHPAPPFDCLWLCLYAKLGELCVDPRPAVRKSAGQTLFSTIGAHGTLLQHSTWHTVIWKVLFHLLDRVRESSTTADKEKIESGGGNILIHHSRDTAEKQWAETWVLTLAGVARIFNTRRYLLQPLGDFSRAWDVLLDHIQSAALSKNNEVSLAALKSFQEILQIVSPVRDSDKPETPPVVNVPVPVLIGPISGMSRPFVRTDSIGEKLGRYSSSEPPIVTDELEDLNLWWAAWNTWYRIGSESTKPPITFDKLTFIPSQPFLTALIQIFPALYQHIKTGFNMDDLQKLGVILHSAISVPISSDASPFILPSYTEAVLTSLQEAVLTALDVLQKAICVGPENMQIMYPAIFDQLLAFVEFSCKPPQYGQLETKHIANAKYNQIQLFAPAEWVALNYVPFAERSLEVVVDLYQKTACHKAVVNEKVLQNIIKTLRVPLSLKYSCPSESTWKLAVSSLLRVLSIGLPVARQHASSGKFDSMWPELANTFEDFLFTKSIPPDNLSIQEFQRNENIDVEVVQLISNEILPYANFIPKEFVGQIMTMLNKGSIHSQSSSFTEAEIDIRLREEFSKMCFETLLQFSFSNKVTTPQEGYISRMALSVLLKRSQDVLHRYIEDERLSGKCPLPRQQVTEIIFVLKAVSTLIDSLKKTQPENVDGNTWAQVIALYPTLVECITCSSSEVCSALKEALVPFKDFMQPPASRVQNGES
UniProt Q9BV20: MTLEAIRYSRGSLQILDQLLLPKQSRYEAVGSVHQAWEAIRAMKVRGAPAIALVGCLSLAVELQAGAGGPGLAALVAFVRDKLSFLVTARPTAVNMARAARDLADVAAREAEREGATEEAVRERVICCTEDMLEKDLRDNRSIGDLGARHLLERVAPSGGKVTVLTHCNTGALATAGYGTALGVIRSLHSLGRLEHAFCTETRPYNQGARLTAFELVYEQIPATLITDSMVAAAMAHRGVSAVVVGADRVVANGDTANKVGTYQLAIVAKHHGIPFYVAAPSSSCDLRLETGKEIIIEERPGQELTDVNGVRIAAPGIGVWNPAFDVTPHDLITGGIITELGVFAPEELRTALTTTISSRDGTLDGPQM
UniProt Q9BPX6: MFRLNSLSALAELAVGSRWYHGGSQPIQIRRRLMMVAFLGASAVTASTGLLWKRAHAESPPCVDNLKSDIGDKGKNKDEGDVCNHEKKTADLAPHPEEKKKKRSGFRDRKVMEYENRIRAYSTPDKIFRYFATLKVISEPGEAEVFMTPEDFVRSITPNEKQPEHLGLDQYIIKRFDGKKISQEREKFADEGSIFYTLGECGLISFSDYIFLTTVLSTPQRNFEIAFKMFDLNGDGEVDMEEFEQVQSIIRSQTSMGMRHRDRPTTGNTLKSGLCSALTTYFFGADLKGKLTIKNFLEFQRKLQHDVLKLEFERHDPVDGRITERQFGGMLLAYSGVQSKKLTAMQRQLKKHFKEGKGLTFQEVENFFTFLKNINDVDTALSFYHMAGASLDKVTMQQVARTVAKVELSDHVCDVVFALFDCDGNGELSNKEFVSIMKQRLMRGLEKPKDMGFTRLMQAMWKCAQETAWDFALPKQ
UniProt O95563: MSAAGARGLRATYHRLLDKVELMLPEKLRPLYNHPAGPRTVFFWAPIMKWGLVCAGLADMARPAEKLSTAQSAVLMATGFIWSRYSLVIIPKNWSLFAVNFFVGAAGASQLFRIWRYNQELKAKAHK
UniProt P50219: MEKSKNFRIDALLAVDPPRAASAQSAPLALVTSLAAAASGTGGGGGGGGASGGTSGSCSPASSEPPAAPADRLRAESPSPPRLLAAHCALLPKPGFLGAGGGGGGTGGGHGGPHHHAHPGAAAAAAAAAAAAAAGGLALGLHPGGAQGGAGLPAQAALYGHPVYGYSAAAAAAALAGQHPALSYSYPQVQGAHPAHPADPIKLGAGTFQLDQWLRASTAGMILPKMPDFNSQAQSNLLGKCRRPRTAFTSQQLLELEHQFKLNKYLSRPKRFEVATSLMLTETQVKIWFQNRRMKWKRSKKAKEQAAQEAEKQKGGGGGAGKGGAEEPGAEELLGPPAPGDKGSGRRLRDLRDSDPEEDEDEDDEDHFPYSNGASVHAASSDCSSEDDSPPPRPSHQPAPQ
UniProt Q8TAP9: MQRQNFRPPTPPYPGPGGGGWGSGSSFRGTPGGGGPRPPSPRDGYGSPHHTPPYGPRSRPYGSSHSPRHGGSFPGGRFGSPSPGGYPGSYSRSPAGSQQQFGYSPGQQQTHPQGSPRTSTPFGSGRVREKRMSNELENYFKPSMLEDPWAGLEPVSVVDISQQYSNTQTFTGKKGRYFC
UniProt Q9UHC7: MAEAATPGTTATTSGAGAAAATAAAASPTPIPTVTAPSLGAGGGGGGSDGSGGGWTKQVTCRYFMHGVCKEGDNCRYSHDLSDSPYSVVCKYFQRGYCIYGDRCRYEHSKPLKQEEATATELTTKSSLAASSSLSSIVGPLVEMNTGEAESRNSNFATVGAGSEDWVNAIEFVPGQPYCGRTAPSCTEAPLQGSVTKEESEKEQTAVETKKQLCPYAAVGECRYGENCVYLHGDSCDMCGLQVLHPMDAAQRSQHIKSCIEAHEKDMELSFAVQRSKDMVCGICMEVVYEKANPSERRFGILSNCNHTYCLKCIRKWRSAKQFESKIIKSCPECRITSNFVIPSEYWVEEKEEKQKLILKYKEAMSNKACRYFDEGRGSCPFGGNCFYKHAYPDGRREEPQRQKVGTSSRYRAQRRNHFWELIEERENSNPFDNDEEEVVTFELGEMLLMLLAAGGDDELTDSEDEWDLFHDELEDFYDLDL

Legend:
Experiment in all cases: log2 fold change, soluble protein after heating vs DMSO (PISA); higher = thermal stabilisation; K562 lysate, 10 uM; active = over 0.2 and 3.5 SD of the protein, either way, in both replicates (recomputed)
[1] = compound: C=CC(=O)N1CCC[C@@H](n2nc(-c3ccc(Oc4ccccc4)cc3)c3c(N)ncnc32)C1 [ibrutinib]
Outline: (§1)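 K562 pellets were dounce-homogenised in PBS pH 7.4 containing 1 mM MgCl2, and the crude extract, at 1 mg/mL protein, was exposed to 10 μM compound for 30 min. Aliquots were heated for 3 min across 48°C-58°C, pooled, brought to 0.5% NP-40 at 4°C and spun at 21,000xg for 90 min, with the supernatant taken as soluble protein. TMTpro 16plex LC-MS/MS with equalised channel sums quantified that protein. Values are log-two fold changes in thermal stability relative to solvent controls, taken from duplicates.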

[2] = compound: CC(=O)c1cnc2ccc(-c3cc(Cl)c(O)c(Cl)c3)nc2c1N[C@H]1CC[C@H](CN(C)C)CC1
Outline: as §1

[3] = compound: CC(C)(C)Cn1c(N)nc2ccc(-c3[nH]c(C(C)(C)C)nc3-c3ccc(F)cc3)nc21 [ralimetinib]
Outline: as §1

[4] = compound: CC(C)(O)CC(=O)NCCn1ccc2ncnc(Nc3ccc(Oc4cccc(C(F)(F)F)c4)c(Cl)c3)c21
Outline: as §1

[5] = compound: CC(C)C1=C2N=C(C=C(N2N=C1)NCC3=CC=CC=C3)NCCCCCCN
Outline: as §1

[6] = compound: CC1=C(C(CC(=O)N1)C2=CC=C(C=C2)C(F)(F)F)C(=O)NC3=C(C=C4C(=C3)C=NN4)F
Outline: as §1

[7] = compound: CC1=C(C2=C(C=C1)C(=O)C3=CC=CC=C3N2CCCN)C
Outline: as §1

[8] = compound: CC1=C(C=C(C=C1)NC(=O)C2=CC(=CC=C2)C(C)(C)C#N)NC3=CC4=C(C=C3)N=CN(C4=O)C
Outline: as §1

[9] = compound: CC1=C(C=C(C=C1)NC(=O)C2=CC(=CC=C2)N(C)C)NC(=O)C3=CC=C(C=C3)O
Outline: as §1

[10] = compound: CC1=CC=C(C=C1)SC2=C3C=C(SC3=CN=C2)C(=O)N
Outline: as §1

[11] = compound: CCCS(=O)(=O)Nc1ccc(F)c(C(=O)c2c[nH]c3ncc(-c4ccc(Cl)cc4)cc23)c1F [vemurafenib]
Outline: as §1

[12] = compound: CCCS(=O)(=O)Nc1ccc(F)c(C(=O)c2c[nH]c3ncc(Cl)cc23)c1F
Outline: as §1

[13] = compound: CCN(CCCOc1ccc2c(Nc3cc(CC(=O)Nc4cccc(F)c4)[nH]n3)ncnc2c1)CCOP(=O)(O)O [barasertib]
Outline: as §1

[14] = compound: CC[C@@H]1C(=O)N(C)c2cnc(Nc3ccc(C(=O)NC4CCN(C)CC4)cc3OC)nc2N1C1CCCC1
Outline: as §1

[15] = compound: CC[C@@H]1C(=O)N(C)c2cnc(Nc3ccc(C(=O)N[C@H]4CC[C@H](N5CCN(CC6CC6)CC5)CC4)cc3OC)nc2N1C(C)C [volasertib]
Outline: as §1

[16] = compound: CCn1c(C(=O)N(C2CC2)C2CC2)cc2c3c(ncn3C)c(Nc3cc(C)n(C)n3)nc21
Outline: as §1

[17] = compound: CCn1cc(-c2ccnc3[nH]c(-c4cccc(CN(C)C)c4)cc23)c(-c2ccc(NC(=O)N(C)C)cc2)n1
Outline: as §1

[18] = compound: CN1CCC(CNc2ccc3ncc(-c4cccc(OC(F)(F)F)c4)n3n2)CC1
Outline: as §1

[19] = compound: CN1CCN(CCOc2cc(OC3CCOCC3)c3c(Nc4c(Cl)ccc5c4OCO5)ncnc3c2)CC1 [saracatinib]
Outline: as §1

[20] = compound: CN1CCN(c2nc(C3=C(c4c[nH]c5ccccc45)C(=O)NC3=O)c3ccccc3n2)CC1 [sotrastaurin]
Outline: as §1

Measured: log2 fold change

MINPP1 (UniProt Q9UNW1)
inactive: [1] -0.034 | [2] 0.016 | [3] -0.004 | [4] 0.043 | [5] -0.015 | [6] -0.011 | [7] 0.042 | [8] -0.047 | [9] -0.013 | [10] 0.005 | [11] -0.009 | [12] -0.009 | [13] -0.017 | [14] 0.018 | [15] 0.022 | [16] 0.027 | [17] -0.028 | [18] 0.023 | [19] -0.016 | [20] 0.039

MPC1 (UniProt Q9Y5U8)
inactive: [1] -0.089 | [2] -0.026 | [3] 0.077 | [4] -0.075 | [5] 0.066 | [7] -0.039 | [8] 0.009 | [9] 0.01 | [10] -0.041 | [11] 0.076 | [12] 0.077 | [13] 0.055 | [14] 0.052 | [15] 0.034 | [16] -0.078 | [17] 0.279 | [18] -0.369 | [19] 0.15 | [20] -0.005

MLKL (UniProt Q8NB16)
inactive: [1] -0.009 | [2] 0.289 | [3] -0.086 | [4] -0.019 | [5] 0.165 | [6] -0.028 | [8] 0.086 | [9] 0.222 | [10] -0.219 | [12] 0.098 | [13] 0.185 | [14] -0.107 | [15] -0.016 | [16] 0.096 | [17] -0.251 | [18] 0.072 | [20] -0.021

MRNIP (UniProt Q6NTE8)
inactive: [1] 0.125 | [2] 0.002 | [3] -0.054 | [4] -0.023 | [5] 0.044 | [6] -0.116 | [7] -0.063 | [8] 0.078 | [9] 0.089 | [10] -0.063 | [12] -0.078 | [13] 0.142 | [15] -0.062 | [16] -0.127 | [17] -0.021 | [18] 0.196 | [19] 0.144 | [20] 0.004

3 successive records from above:
MINPP1 (UniProt Q9UNW1)
inactive: [1] -0.034 | [2] 0.016 | [3] -0.004 | [4] 0.043 | [5] -0.015 | [6] -0.011 | [7] 0.042 | [8] -0.047 | [9] -0.013 | [10] 0.005 | [11] -0.009 | [12] -0.009 | [13] -0.017 | [14] 0.018 | [15] 0.022 | [16] 0.027 | [17] -0.028 | [18] 0.023 | [19] -0.016 | [20] 0.039

MPC1 (UniProt Q9Y5U8)
inactive: [1] -0.089 | [2] -0.026 | [3] 0.077 | [4] -0.075 | [5] 0.066 | [7] -0.039 | [8] 0.009 | [9] 0.01 | [10] -0.041 | [11] 0.076 | [12] 0.077 | [13] 0.055 | [14] 0.052 | [15] 0.034 | [16] -0.078 | [17] 0.279 | [18] -0.369 | [19] 0.15 | [20] -0.005

MLKL (UniProt Q8NB16)
inactive: [1] -0.009 | [2] 0.289 | [3] -0.086 | [4] -0.019 | [5] 0.165 | [6] -0.028 | [8] 0.086 | [9] 0.222 | [10] -0.219 | [12] 0.098 | [13] 0.185 | [14] -0.107 | [15] -0.016 | [16] 0.096 | [17] -0.251 | [18] 0.072 | [20] -0.021

Following part

MPDU1 (UniProt O75352)
inactive: [1] -0.099 | [2] -0.002 | [3] 0.028 | [4] -0.034 | [5] -0.03 | [6] 0.086 | [7] -0.055 | [8] 0.038 | [9] -0.019 | [10] 0.048 | [11] 0.094 | [12] 0.004 | [13] 0.091 | [14] 0.013 | [15] 0.047 | [16] -0.003 | [17] -0.08 | [18] 0.126 | [19] -0.028 | [20] 0.013

MRPL16 (UniProt Q9NX20)
inactive: [1] 0.061 | [2] 0.088 | [3] 0.042 | [4] -0.013 | [5] 0.069 | [6] 0.107 | [7] -0.062 | [8] 0.089 | [9] 0.043 | [10] 0.071 | [11] 0.063 | [12] 0.01 | [13] 0.054 | [14] -0.064 | [15] -0.08 | [16] -0.018 | [19] -0.051 | [20] -0.042

MOGS (UniProt Q13724)
inactive: [1] 0.021 | [2] 0.018 | [3] 0.014 | [4] 0.023 | [5] 0.049 | [6] 0.046 | [7] 0.012 | [8] -0.014 | [9] 0.023 | [10] 0.034 | [11] 0.046 | [12] 0.01 | [13] 0.011 | [14] 0.029 | [15] -0.008 | [16] -0.004 | [17] -0.003 | [18] 0.018 | [19] 0.019 | [20] 0.016

MGA (UniProt Q8IWI9)
inactive: [1] 0.147 | [2] 0.141 | [3] 0.022 | [4] -0.031 | [5] 0.002 | [6] -0.027 | [7] -0.081 | [8] 0.046 | [9] 0.079 | [10] -0.039 | [11] -0.019 | [12] 0.102 | [13] 0.062 | [14] 0.135 | [15] -0.061 | [16] -0.108 | [17] 0.07 | [18] -0.004 | [19] 0.074 | [20] 0.031

MINDY1 isoform 3 (UniProt Q8N5J2)
inactive: [1] 0.199 | [2] 0 | [3] 0.001 | [4] -0.121 | [5] -0.022 | [6] -0.179 | [7] -0.161 | [8] -0.034 | [9] 0.015 | [10] 0.065 | [11] -0.049 | [12] -0.26 | [13] -0.201 | [14] 0.059 | [15] -0.041 | [16] -0.106 | [19] 0.076 | [20] 0.074

MON2 isoform 5 (UniProt Q7Z3U7)
inactive: [1] -0.027 | [2] 0.001 | [3] 0.017 | [4] -0.042 | [5] -0.02 | [6] 0.012 | [7] 0.002 | [8] 0.01 | [9] 0.025 | [10] 0 | [11] -0.015 | [12] 0.025 | [13] 0.008 | [14] -0.029 | [15] -0.04 | [16] 0.019 | [17] -0.07 | [18] 0.062 | [19] -0.006 | [20] -0.003

MRI1 (UniProt Q9BV20)
inactive: [1] -0.008 | [2] -0.031 | [3] 0.012 | [4] -0.039 | [5] -0.021 | [6] 0.002 | [7] -0.018 | [8] 0.048 | [9] 0 | [10] -0.039 | [11] -0.012 | [12] 0.02 | [13] 0.018 | [14] -0.024 | [15] 0.021 | [16] 0.014 | [17] -0.077 | [18] 0.084 | [19] -0.007 | [20] -0.03

MICU1 isoform 3 (UniProt Q9BPX6)
inactive: [1] -0.011 | [2] -0.021 | [3] 0.023 | [4] 0.001 | [5] -0.02 | [6] 0 | [7] 0.013 | [8] -0.028 | [9] 0.038 | [10] 0.019 | [11] -0.055 | [12] -0.004 | [13] 0.094 | [14] 0.002 | [15] -0.005 | [16] 0.091 | [19] 0.006 | [20] 0.044
active: [17] 0.234 | [18] -0.422

MPC2 (UniProt O95563)
inactive: [1] -0.021 | [2] 0.012 | [3] 0.012 | [4] -0.042 | [5] 0.02 | [6] -0.027 | [7] -0.057 | [8] 0.013 | [9] -0.026 | [10] -0.005 | [11] 0.023 | [12] -0.001 | [13] -0.003 | [14] 0.067 | [15] 0.005 | [16] -0.025 | [17] -0.084 | [18] 0.076 | [19] -0.005 | [20] 0.003

MNX1 (UniProt P50219)
inactive: [1] 0.114 | [2] 0.024 | [3] 0.004 | [4] 0.046 | [5] 0.01 | [7] -0.007 | [8] -0.106 | [9] -0.029 | [10] -0.082 | [11] 0.014 | [12] -0.008 | [13] -0.114 | [14] 0.095 | [15] -0.059 | [16] 0.108 | [17] -0.153 | [18] 0.058 | [19] 0.078 | [20] 0.052

MPLKIP (UniProt Q8TAP9)
inactive: [1] 0.006 | [2] 0.033 | [3] 0.013 | [4] -0.009 | [5] -0.056 | [6] 0.064 | [7] 0.045 | [8] 0.034 | [9] -0.023 | [10] 0.018 | [11] 0.004 | [12] -0.037 | [13] -0.206 | [14] -0.028 | [15] 0.128 | [16] -0.01 | [17] -0.213 | [18] 0.183 | [19] -0.019 | [20] 0.009

MRPL10 isoform 2 (UniProt Q7Z7H8)
inactive: [1] -0.062 | [2] -0.013 | [3] 0.047 | [4] -0.019 | [5] -0.04 | [6] -0.029 | [7] -0.005 | [8] 0.025 | [9] 0.053 | [10] 0.042 | [11] 0.027 | [12] 0.033 | [13] 0.132 | [14] 0.03 | [15] -0.037 | [16] -0.063 | [17] 0.075 | [18] -0.032 | [19] -0.005 | [20] 0.068

MKRN1 (UniProt Q9UHC7)
inactive: [1] 0.049 | [2] -0.018 | [3] 0.045 | [4] -0.082 | [5] -0.018 | [6] -0.093 | [7] -0.021 | [8] 0.03 | [9] -0.012 | [10] 0.034 | [11] -0.028 | [12] 0.009 | [13] 0.058 | [14] -0.008 | [15] 0.036 | [16] 0.056 | [17] -0.037 | [18] 0.015 | [19] -0.089 | [20] 0.034
